Assay results: the supplement of paper PMC10849652
This is one part of the list.

Sequences of proteins named here, by UniProt entry; tags and fusion partners are left off. A change or cut given only in a name is not applied to a line headed by its entry.
UniProt Q6WCQ1: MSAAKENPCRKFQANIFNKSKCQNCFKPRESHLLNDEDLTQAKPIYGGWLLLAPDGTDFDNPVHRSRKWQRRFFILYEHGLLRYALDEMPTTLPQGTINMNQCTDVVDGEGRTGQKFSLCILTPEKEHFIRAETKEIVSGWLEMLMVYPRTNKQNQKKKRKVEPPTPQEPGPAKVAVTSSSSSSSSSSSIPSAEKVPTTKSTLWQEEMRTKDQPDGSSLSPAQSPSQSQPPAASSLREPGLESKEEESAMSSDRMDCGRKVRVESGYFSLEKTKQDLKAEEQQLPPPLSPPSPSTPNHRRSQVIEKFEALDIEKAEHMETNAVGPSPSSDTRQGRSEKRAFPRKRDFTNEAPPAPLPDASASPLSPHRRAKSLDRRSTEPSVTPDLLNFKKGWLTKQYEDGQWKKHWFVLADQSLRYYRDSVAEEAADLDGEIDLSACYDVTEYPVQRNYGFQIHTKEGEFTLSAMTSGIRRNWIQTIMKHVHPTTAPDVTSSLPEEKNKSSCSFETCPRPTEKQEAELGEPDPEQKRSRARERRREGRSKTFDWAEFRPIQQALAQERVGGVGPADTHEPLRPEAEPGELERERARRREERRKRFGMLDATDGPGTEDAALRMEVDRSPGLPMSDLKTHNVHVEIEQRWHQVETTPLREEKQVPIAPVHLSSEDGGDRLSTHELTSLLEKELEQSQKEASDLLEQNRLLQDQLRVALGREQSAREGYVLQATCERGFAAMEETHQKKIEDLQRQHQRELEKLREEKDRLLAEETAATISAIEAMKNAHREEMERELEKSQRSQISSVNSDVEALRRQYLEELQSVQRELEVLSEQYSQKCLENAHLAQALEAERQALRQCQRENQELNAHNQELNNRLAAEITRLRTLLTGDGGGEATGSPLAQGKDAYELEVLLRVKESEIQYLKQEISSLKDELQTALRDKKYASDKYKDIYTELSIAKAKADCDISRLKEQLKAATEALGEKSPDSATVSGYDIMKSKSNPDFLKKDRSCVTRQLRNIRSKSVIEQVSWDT
UniProt P49959: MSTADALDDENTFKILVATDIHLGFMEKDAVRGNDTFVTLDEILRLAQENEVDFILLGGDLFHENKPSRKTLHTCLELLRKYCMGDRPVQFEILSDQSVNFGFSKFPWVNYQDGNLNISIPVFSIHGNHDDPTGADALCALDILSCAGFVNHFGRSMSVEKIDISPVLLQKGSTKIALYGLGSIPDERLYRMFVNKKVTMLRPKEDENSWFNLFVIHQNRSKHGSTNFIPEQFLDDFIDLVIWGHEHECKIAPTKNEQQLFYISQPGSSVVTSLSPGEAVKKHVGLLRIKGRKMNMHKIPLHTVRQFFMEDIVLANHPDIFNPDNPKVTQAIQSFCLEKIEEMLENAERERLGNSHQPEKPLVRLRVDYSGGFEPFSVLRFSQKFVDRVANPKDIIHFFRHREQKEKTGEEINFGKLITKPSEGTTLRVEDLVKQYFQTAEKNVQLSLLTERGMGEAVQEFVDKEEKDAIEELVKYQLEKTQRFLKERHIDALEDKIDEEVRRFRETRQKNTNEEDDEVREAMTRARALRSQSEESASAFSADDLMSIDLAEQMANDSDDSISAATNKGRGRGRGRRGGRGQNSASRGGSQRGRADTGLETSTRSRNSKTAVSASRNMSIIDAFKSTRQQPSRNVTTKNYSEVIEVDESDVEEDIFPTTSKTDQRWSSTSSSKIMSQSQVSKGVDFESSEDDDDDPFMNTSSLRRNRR
UniProt Q99583: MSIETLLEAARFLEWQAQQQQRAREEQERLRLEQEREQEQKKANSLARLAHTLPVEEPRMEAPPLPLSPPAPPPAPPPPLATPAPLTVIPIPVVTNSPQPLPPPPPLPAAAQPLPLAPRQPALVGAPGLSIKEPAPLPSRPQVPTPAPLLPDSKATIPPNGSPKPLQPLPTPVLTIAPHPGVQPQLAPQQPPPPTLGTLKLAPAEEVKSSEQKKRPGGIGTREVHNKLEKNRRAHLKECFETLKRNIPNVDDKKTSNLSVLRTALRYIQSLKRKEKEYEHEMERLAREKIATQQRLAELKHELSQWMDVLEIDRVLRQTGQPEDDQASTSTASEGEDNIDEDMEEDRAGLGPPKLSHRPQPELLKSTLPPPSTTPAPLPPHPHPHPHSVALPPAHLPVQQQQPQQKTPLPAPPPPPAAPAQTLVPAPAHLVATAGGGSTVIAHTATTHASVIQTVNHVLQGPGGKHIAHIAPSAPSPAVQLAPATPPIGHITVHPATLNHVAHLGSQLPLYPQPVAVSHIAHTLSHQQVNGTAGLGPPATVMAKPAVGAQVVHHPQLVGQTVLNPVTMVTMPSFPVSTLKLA
UniProt O75030: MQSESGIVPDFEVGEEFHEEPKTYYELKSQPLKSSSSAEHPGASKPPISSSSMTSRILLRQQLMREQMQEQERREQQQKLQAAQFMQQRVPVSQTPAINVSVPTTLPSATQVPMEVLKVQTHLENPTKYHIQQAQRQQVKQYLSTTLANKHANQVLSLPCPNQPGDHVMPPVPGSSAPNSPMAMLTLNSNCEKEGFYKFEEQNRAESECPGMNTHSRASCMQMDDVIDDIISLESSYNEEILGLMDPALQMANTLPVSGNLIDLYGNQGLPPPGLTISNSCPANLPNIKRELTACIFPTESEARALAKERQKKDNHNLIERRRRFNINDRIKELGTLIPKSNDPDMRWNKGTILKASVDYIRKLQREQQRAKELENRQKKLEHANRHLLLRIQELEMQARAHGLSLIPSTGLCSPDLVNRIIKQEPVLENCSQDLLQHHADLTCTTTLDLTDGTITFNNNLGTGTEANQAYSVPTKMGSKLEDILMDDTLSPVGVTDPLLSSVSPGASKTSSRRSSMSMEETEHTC
UniProt Q9NYP9: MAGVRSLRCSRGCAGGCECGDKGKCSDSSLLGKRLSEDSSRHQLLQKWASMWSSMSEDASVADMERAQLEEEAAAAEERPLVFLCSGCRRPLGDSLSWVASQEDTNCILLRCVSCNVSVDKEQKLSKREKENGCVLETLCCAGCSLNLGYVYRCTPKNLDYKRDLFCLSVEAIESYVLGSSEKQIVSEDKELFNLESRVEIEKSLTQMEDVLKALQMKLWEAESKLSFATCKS
UniProt Q9BVC4, whole entry, looked up: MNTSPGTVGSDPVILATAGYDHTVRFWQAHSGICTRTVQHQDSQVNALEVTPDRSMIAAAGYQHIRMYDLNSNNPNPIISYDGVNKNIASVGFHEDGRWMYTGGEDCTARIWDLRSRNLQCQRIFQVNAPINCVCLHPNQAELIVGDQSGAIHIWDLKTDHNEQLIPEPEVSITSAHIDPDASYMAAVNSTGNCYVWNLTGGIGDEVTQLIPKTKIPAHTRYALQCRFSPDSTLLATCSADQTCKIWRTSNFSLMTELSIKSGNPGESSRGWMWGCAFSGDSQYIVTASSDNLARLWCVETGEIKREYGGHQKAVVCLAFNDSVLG
UniProt Q96BX8: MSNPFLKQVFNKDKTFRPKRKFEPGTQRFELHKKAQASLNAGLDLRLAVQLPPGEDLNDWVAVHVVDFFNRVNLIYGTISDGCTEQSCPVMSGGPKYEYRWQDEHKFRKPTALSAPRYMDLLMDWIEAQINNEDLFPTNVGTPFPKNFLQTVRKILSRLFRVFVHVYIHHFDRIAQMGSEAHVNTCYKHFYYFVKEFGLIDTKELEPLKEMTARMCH
UniProt Q9Y605: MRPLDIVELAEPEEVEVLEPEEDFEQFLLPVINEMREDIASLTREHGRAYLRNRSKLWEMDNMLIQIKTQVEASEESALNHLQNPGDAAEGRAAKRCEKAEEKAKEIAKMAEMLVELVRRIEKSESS
UniProt O95563: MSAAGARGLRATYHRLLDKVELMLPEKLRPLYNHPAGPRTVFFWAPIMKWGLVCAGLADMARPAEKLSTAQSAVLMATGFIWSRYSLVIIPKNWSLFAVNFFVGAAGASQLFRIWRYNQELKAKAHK
UniProt P22033: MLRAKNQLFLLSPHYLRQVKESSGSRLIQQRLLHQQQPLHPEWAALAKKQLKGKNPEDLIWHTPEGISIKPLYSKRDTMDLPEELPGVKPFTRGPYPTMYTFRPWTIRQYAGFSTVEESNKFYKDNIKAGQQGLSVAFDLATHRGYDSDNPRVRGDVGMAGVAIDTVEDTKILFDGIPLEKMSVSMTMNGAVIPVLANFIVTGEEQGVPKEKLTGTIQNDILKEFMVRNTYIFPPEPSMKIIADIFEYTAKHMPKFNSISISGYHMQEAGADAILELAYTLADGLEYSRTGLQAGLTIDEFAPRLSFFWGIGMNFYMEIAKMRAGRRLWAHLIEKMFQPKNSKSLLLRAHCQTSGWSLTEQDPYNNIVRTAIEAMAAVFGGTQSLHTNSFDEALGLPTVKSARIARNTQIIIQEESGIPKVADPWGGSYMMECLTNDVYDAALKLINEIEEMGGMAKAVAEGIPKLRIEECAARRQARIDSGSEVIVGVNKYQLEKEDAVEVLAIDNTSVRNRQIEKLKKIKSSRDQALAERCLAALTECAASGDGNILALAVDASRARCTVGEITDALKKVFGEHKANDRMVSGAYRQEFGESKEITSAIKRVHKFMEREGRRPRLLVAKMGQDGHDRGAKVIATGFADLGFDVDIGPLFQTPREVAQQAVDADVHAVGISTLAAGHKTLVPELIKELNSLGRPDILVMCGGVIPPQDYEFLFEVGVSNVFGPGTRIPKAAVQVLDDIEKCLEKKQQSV
UniProt Q9UL63, whole entry, looked up: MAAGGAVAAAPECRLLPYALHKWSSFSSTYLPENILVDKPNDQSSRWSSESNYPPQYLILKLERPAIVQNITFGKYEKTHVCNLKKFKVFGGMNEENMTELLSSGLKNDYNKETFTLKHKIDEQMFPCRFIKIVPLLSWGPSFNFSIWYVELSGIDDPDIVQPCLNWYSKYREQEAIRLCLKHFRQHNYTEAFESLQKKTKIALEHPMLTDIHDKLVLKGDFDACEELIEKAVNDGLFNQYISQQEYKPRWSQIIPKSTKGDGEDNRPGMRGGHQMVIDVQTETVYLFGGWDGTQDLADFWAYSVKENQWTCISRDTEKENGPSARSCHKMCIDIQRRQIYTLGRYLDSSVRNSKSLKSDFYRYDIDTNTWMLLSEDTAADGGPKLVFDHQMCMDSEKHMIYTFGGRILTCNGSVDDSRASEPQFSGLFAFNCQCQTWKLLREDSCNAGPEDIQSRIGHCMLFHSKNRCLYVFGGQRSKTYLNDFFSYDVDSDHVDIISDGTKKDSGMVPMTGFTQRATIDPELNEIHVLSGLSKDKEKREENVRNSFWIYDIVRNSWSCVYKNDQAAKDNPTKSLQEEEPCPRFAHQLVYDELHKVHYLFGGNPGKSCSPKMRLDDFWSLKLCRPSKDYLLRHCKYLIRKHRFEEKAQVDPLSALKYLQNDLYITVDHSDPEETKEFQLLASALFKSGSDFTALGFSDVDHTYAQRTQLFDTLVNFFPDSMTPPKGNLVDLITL
UniProt A9UHW6: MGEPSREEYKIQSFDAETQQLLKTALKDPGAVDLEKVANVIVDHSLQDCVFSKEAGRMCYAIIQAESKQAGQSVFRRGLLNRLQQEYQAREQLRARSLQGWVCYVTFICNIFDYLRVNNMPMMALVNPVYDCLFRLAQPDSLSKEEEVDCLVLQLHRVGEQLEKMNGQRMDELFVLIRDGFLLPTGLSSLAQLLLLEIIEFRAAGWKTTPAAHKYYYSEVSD
UniProt Q9HAP2: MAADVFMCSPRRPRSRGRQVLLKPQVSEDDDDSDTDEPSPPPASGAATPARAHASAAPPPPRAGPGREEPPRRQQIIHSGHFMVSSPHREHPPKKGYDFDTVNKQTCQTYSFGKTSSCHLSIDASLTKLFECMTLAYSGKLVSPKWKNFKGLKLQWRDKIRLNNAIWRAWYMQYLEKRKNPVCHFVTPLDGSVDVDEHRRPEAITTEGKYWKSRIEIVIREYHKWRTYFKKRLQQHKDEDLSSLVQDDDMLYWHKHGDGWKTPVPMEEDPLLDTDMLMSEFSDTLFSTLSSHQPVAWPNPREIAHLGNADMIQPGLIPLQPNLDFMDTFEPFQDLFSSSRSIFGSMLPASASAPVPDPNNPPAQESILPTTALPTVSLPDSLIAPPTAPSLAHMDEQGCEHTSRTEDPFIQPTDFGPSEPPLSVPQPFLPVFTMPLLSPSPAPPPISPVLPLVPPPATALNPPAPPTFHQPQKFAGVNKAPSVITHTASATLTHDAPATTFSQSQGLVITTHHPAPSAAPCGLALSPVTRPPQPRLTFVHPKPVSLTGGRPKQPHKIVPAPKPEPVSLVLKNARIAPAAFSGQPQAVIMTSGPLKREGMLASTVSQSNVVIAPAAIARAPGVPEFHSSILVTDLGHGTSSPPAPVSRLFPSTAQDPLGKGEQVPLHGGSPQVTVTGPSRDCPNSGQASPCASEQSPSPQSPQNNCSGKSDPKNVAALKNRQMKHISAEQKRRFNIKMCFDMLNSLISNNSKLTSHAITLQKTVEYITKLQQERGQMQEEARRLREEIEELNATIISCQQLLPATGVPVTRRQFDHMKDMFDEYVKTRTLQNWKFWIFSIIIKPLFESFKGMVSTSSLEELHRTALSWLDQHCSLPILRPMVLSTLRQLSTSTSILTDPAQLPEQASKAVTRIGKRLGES

How the values were obtained:
Assay in all cases: log2 fold change, soluble protein after heating vs DMSO (PISA); higher = thermal stabilisation; K562 cells, 10 uM, 30 min; active = over 0.2 and 3.5 SD of the protein, either way, in both replicates (recomputed)
[1] = compound: NC(=O)Nc1cc(-c2cccc(F)c2)sc1C(=O)N[C@H]1CCCNC1
In short: (§1)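 K562 cells at 2×10^6 cells/mL were treated with 10 μM compound for 30 min. Aliquots were heated for 3 min across 48°C-58°C, pooled, and extracted in PBS with 0.5% NP-40 at 4°C; soluble protein was the supernatant after 21,000xg for 90 min. Soluble protein was quantified by TMTpro 16plex LC-MS/MS with channel sums equalised, and reported as log2 fold change in thermal stability against DMSO controls, with values from duplicates.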

[2] = compound: NC(=O)c1cnc(N[C@@H]2CCCC[C@@H]2N)nc1Nc1cccc(-n2nccn2)c1
In short: as §1

[3] = compound: NC1(c2ccc(-c3nc4ccn5c(=O)[nH]nc5c4cc3-c3ccccc3)cc2)CCC1
In short: as §1

[4] = compound: NCC(=O)Nc1ccc(-n2nc(C(F)(F)F)cc2-c2ccc3c(ccc4ccccc43)c2)cc1
In short: as §1

[5] = compound: Nc1ccccc1NC(=O)c1ccc(CNC(=O)OCc2cccnc2)cc1 [entinostat]
In short: as §1

[6] = compound: O=C(CCCCCCC(=O)Nc1ccccc1)NO [vorinostat]
In short: as §1

[7] = compound: O=C(O)c1ccc2c(c1)nc(Nc1cccc(Cl)c1)c1ccncc12 [silmitasertib]
In short: as §1

[8] = compound: O=C1NC(=O)C(c2cnc3ccccn23)=C1c1cn2c3c(cc(F)cc13)CN(C(=O)N1CCCCC1)CC2
In short: as §1

[9] = compound: O=C(CCCCCCNC(=O)c1cnc(N(c2ccccc2)c2ccccc2Cl)nc1)NO [citarinostat]
In short: as §1

[10] = compound: c1cc(OCCN2CCCCC2)cc(-c2n[nH]c3ccc(-c4nnc[nH]4)cc23)c1
In short: as §1

[11] = compound: c1cn2cc(-c3ccc4cn[nH]c4c3)nc(Nc3ccc(N4CCOCC4)cc3)c2n1 [entospletinib]
In short: as §1

Measured: log2 fold change

MPRIP isoform 2 (UniProt Q6WCQ1)
inactive: [1] -0.119 | [2] -0.015 | [3] 0.025 | [4] -0.088 | [5] -0.008 | [6] 0.035 | [7] 0.089 | [8] -0.081

MRE11 isoform 3 (UniProt P49959)
inactive: [1] -0.049 | [2] 0.03 | [3] 0.017 | [4] -0.001 | [5] -0.007 | [6] -0.169 | [9] 0.011 | [7] -0.011 | [8] -0.032 | [10] -0.03 | [11] 0.013

MNT (UniProt Q99583)
inactive: [1] 0.051 | [2] -0.055 | [3] 0.03 | [4] 0.049 | [5] 0.052 | [6] -0.082 | [7] 0.218 | [8] -0.02

MOB1B isoform 2 (UniProt Q7L9L4)
inactive: [1] -0.037 | [2] -0.02 | [3] -0.05 | [4] -0.044 | [5] 0.01 | [6] 0.004 | [9] 0.039 | [7] 0.026 | [8] -0.023 | [10] -0.077 | [11] 0.015

MRPL16 (UniProt Q9NX20)
inactive: [1] 0.009 | [2] 0.282 | [3] 0.147 | [4] 0.11 | [5] 0.021 | [6] -0.057 | [9] -0.051 | [7] -0.063 | [8] -0.009 | [10] 0.286 | [11] 0.051

MRPL41 (UniProt Q8IXM3)
inactive: [1] -0.046 | [2] 0.037 | [3] -0.001 | [4] 0.075 | [5] -0.011 | [6] 0.062 | [9] -0.013 | [7] -0.09 | [8] 0.029 | [10] -0.119 | [11] 0.084

MRPL33 (UniProt O75394)
inactive: [1] -0.085 | [2] 0 | [3] -0.051 | [4] 0.096 | [5] 0.219 | [9] 0.031 | [7] -0.06 | [8] -0.039 | [10] -0.083 | [11] 0.09

MRPL40 (UniProt Q9NQ50)
inactive: [1] 0.071 | [2] -0.017 | [3] 0.041 | [4] 0.085 | [5] -0.043 | [6] -0.053 | [9] 0.04 | [7] -0.033 | [8] -0.02 | [10] -0.047 | [11] 0.047

MRPL30 isoform 2 (UniProt Q8TCC3)
inactive: [1] 0.043 | [2] 0.034 | [3] 0.061 | [4] 0.077 | [5] -0.012 | [6] 0.021 | [9] 0.073 | [7] 0 | [8] 0.022 | [10] -0.068 | [11] 0.081

MICALL1 (UniProt Q8N3F8)
inactive: [1] -0.133 | [2] -0.022 | [3] -0.29 | [4] -0.149 | [5] -0.07 | [6] -0.017 | [9] -0.008 | [7] -0.042 | [8] -0.041 | [10] -0.093 | [11] 0.012

MITF (UniProt O75030)
inactive: [1] -0.023 | [2] 0.021 | [3] -0.11 | [4] 0.302 | [5] -0.048 | [6] 0.2 | [9] 0.083 | [7] 0.071 | [10] -0.022

MIS18A (UniProt Q9NYP9)
inactive: [1] -0.019 | [2] -0.058 | [3] -0.077 | [4] 0.047 | [5] -0.01 | [6] -0.008 | [9] 0.041 | [7] -0.003 | [8] -0.171 | [10] -0.03 | [11] -0.007

MMAB (UniProt Q96EY8)
inactive: [1] -0.055 | [2] 0.004 | [3] -0.007 | [4] 0.004 | [5] 0.005 | [6] 0.009 | [9] 0.009 | [7] -0.021 | [8] -0.066 | [10] 0.011 | [11] 0.042

MLST8 (UniProt Q9BVC4)
inactive: [1] 0.064 | [2] -0.201 | [3] -0.182 | [4] -0.082 | [5] 0.127 | [9] 0.043 | [7] 0.105 | [8] -0.03 | [10] -0.025

2 successive entries already listed:
MNT (UniProt Q99583)
inactive: [1] 0.051 | [2] -0.055 | [3] 0.03 | [4] 0.049 | [5] 0.052 | [6] -0.082 | [7] 0.218 | [8] -0.02

MOB1B isoform 2 (UniProt Q7L9L4)
inactive: [1] -0.037 | [2] -0.02 | [3] -0.05 | [4] -0.044 | [5] 0.01 | [6] 0.004 | [9] 0.039 | [7] 0.026 | [8] -0.023 | [10] -0.077 | [11] 0.015

The results go on.

MOB3A (UniProt Q96BX8)
inactive: [1] 0.396 | [2] -0.21 | [3] -0.178 | [4] 0.055 | [5] 0.227 | [6] 0.086 | [7] 0.032

MRFAP1 (UniProt Q9Y605)
inactive: [1] 0.134 | [2] 0.01 | [3] 0.021 | [4] -0.082 | [5] 0.014 | [6] 0.15 | [9] 0.133 | [7] -0.019 | [10] -0.028

MRPL21 (UniProt Q7Z2W9)
inactive: [1] 0.029 | [2] -0.043 | [3] -0.007 | [4] 0.078 | [5] 0.013 | [6] 0.062 | [9] 0 | [7] -0.031 | [8] 0.046 | [10] -0.035 | [11] 0.016

MRPL45 (UniProt Q9BRJ2)
inactive: [1] 0.024 | [2] 0.037 | [3] -0.074 | [4] 0.147 | [5] -0.03 | [6] 0.1 | [9] 0.025 | [7] -0.043 | [8] -0.013 | [10] -0.058 | [11] 0.021

MOCS3 (UniProt O95396)
inactive: [1] -0.077 | [2] 0.1 | [3] 0.028 | [4] -0.162 | [5] 0.039 | [6] 0.003 | [7] -0.063 | [8] -0.048

MMTAG2 (UniProt Q9BU76)
inactive: [1] 0.088 | [2] 0.087 | [3] 0.154 | [4] 0.299 | [5] -0.059 | [6] 0.116 | [9] 0.003 | [7] 0.041 | [10] -0.276 | [11] -0.054

MPC2 (UniProt O95563)
inactive: [1] 0.001 | [2] -0.012 | [3] -0.034 | [4] -0.016 | [5] -0.018 | [6] 0.024 | [9] 0.026 | [7] 0.009 | [8] 0.006 | [10] -0.065 | [11] -0.033

MRPL4 (UniProt Q9BYD3)
inactive: [1] 0.032 | [2] 0.028 | [3] -0.01 | [4] 0.056 | [5] 0.114 | [6] 0.041 | [9] -0.066 | [7] 0.006 | [8] 0.087 | [10] -0.11 | [11] 0.069

MRPL51 (UniProt Q4U2R6)
inactive: [1] 0.003 | [2] -0.047 | [3] 0.085 | [4] 0.088 | [5] -0.045 | [6] 0.003 | [9] -0.025 | [7] -0.005 | [8] -0.008 | [10] -0.17 | [11] 0.187

MRPL28 (UniProt Q13084)
inactive: [1] 0.02 | [2] 0.059 | [3] 0.028 | [4] 0.192 | [5] 0.024 | [6] 0.043 | [9] 0.043 | [7] -0.072 | [8] 0.095 | [10] -0.013 | [11] 0.058

MORF4L1 isoform 2 (UniProt Q9UBU8)
inactive: [1] -0.047 | [2] -0.077 | [3] -0.071 | [4] -0.041 | [5] -0.081 | [6] 0.053 | [9] -0.208 | [7] 0.016 | [8] -0.117 | [10] -0.037 | [11] 0.01

MIOS (UniProt Q9NXC5)
inactive: [1] 0.053 | [2] 0.047 | [3] 0.042 | [4] -0.033 | [5] -0.047 | [6] 0.048 | [9] -0.028 | [7] 0.022 | [8] -0.011 | [10] -0.079 | [11] 0.052

MPZL1 (UniProt O95297)
inactive: [1] -0.061 | [2] 0.078 | [3] 0.043 | [4] 0.002 | [5] -0.019 | [6] -0.03 | [9] 0 | [7] -0.055 | [8] -0.022 | [10] 0.006 | [11] 0.022

MMUT (UniProt P22033)
inactive: [1] -0.07 | [2] -0.085 | [3] -0.103 | [4] -0.084 | [5] 0.019 | [6] -0.039 | [9] 0.016 | [7] 0.034 | [8] -0.113 | [10] -0.007 | [11] -0.01

MRPL13 (UniProt Q9BYD1)
inactive: [1] 0.044 | [2] 0.039 | [3] -0.026 | [4] 0.156 | [5] 0 | [6] 0.038 | [9] -0.007 | [7] -0.085 | [8] 0.058 | [10] -0.076 | [11] 0.107

MKLN1 (UniProt Q9UL63)
inactive: [1] -0.042 | [2] -0.008 | [3] -0.058 | [4] -0.025 | [5] 0.004 | [6] 0.023 | [9] 0.05 | [7] 0.011 | [8] -0.02 | [10] -0.046 | [11] -0.055

MRPL1 (UniProt Q9BYD6)
inactive: [1] -0.052 | [2] 0.037 | [3] -0.108 | [4] 0.158 | [5] 0.061 | [6] 0.017 | [9] 0.05 | [7] 0.057 | [8] 0.044 | [10] -0.058 | [11] 0.045

MIF4GD isoform 3 (UniProt A9UHW6)
inactive: [1] -0.054 | [2] -0.085 | [3] 0.015 | [4] 0.006 | [5] -0.013 | [6] -0.101 | [9] 0 | [7] 0.018 | [8] 0.046 | [10] -0.033 | [11] -0.011

MLXIP (UniProt Q9HAP2)
inactive: [1] 0.122 | [2] -0.042 | [3] 0.018 | [4] 0.12 | [5] 0.083 | [6] 0.055 | [7] -0.059 | [8] 0.077

MICAL3 (UniProt Q7RTP6)
inactive: [1] -0.1 | [2] -0.092 | [3] -0.087 | [4] -0.058 | [5] 0.005 | [6] 0.009 | [9] 0.037 | [7] 0.011 | [8] -0.012 | [10] -0.04 | [11] 0.025

MRPL32 (UniProt Q9BYC8)
inactive: [1] 0 | [2] 0.097 | [3] 0.189 | [4] 0.139 | [5] -0.027 | [6] 0.035 | [9] -0.017 | [7] 0.04 | [8] 0.001 | [10] -0.038 | [11] 0.09

MIER3 isoform 2 (UniProt Q7Z3K6)
inactive: [4] 0.049

MON1A (UniProt Q86VX9)
inactive: [1] 0.016 | [3] 0.001 | [5] -0.005 | [6] 0.017 | [9] 0.161 | [7] -0.157 | [8] -0.013 | [10] -0.275

MPC1 (UniProt Q9Y5U8)
inactive: [1] 0.202 | [2] 0.109 | [3] 0.037 | [5] 0.045 | [9] -0.069 | [7] -0.074 | [10] 0.422 | [11] -0.05
